Values quoted from earlier work as cited in patent US8097646B2, “Ophthalmic preparation containing menthyl ester of indomethacin” (AlphaRx, Inc., priority 2005, dated 2012).

Details: cited from earlier work

In the case of `COc1ccc2c(c1)c(CC(=O)O)c(C)n2C(=O)c1ccc(Cl)cc1` [Indomethacin, 1-(4-Chlorobenzoyl)-5-Methoxy-2-methyl-1H-indole-3-acetic acid], the “Solubility in water (background statement)” value is listed as “practically insoluble”.
